# Measurements published in PubChem BioAssay AID2417 (National Center for Advancing Translational Sciences (NCATS), 2010).
# Among all 140,000 compounds or so, about 4,300 (3.1%) were called active. Inconclusive results, whose numbers are uncertain, are shown with a selection of clear calls.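 How the source made its calls: active means readout at or below -70, meaning at least 70% loss of cells showing the perinucleolar compartment, a nuclear body marking cancer cells; inconclusive means readout between -30 and a set limit; inactive means the rest.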
# Experiment: High Content Assay for Compounds that inhibit the Assembly of the Perinucleolar Compartment;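 further: plate controls were DMSO wells for no effect and camptothecin positive control wells for full effect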
# Conditions: PC3M PTB-GFP, PNC prevalence imaging, 16 h; at 10 µM; stronger effect = lower value
# Procedure, shortened: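 Compounds are pinned in duplicate onto adhered PC3M cells stably expressing GFP-tagged PTB and incubated 16 h at 37 C. Cells are then fixed, nuclei stained with Hoechst, and PNC-positive cells counted.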
row,Structure (SMILES),"activity change (PNC), negative = inhibition"
1,CCOc1ccc2ccccc2c1/C=N\NC(=O)OC,inactive: 54.6%
2,Cc1ccccc1Nc1nc(N)nc(CSCc2c(C)noc2C)n1,inconclusive: -44%
3,C/C(CC(=O)Nc1ccccn1)=N\NC(=O)c1ccc2ccccc2c1,inconclusive: -47.5%
4,O=C(O)c1ccc(NC(=S)Nc2ccccc2)cc1,inconclusive: -53.6%
5,COc1ccc(CNc2oc(-c3ccccc3)nc2C#N)cc1,inactive: 24.6%
6,CCCCN1C(=O)c2ccc(C(=O)Nc3c(N)n(CCCC)c(=O)n(C)c3=O)cc2C1=O,inconclusive: -33.2%
7,COc1ccc(N(C(=O)c2cccnc2)S(=O)(=O)c2ccc3c4c(cccc24)C(=O)N3C)cc1,inconclusive: -35.9%
8,CC1CCN(C(=O)C(Cc2ccccc2)n2cccc2)CC1 (stereo unspecified),inconclusive: -41.9%
9,CCOc1cc(/C=C2\CCCC(C(=O)C(F)(F)F)=C2O)ccc1O,inconclusive: -55.7%
10,CCCCOCCCNC(=O)COc1ccccc1,inconclusive: -66.9%
11,CN(C(=O)COc1cc(=O)n(C)c2ccccc12)c1ccc(Br)cc1,inactive: -21.9%
12,Cc1ccc(/C=N/NC(=O)c2cccs2)o1,active: -82.5%
13,CC(C)CCNC(=O)c1nnc(Cc2ccc(Cl)cc2)o1,active: -110%
14,CCc1ccccc1N=C1S/C(=C/c2ccccc2OCC(=O)N2CCOCC2)C(=O)N1C,inconclusive: -56.8%
15,CCOC(=O)c1sc(NC(=O)Nc2ccc(Cl)cc2)nc1C,inactive: 37.8%
16,Cc1ccccc1C(=O)O/N=C(\N)c1ccncc1,inconclusive: -36.3%
17,O=C(c1ccco1)N1CCN(Cc2nc3ccc([N+](=O)[O-])cc3c(=O)n2-c2ccccc2F)CC1,inactive: -3.83%
18,Cc1ccc(Nc2nc(-c3sc(NC(=O)c4ccco4)nc3C)cs2)cc1,inconclusive: -79.7%
19,O=C(/C(=N/N=C/c1ccc(O)c(O)c1)c1ccccc1)c1ccccc1,inconclusive: -65.4%
20,Cc1ccc(S(=O)(=O)Cn2nnnc2CN2CCOCC2)cc1,inconclusive: -51.7%
21,CC(NC(=O)/C(C#N)=C/c1cn[nH]c1-c1ccccc1)c1ccccc1 (stereo unspecified),inactive: 25.3%
22,COCCN(Cc1cc2cc3c(cc2n2nnnc12)OCO3)C(=O)c1ccccc1F,inconclusive: -73.2%
23,Cc1ccccc1C(=O)Nc1ccc(-c2nc3ccc(C(=O)c4ccccc4)cc3[nH]2)cc1,inactive: -6.33%

# Some of the entries so far, bar-delimited.
row | Structure (SMILES) | activity change (PNC), negative = inhibition
1 | CCOc1ccc2ccccc2c1/C=N\NC(=O)OC | inactive: 54.6%
2 | Cc1ccccc1Nc1nc(N)nc(CSCc2c(C)noc2C)n1 | inconclusive: -44%
4 | O=C(O)c1ccc(NC(=S)Nc2ccccc2)cc1 | inconclusive: -53.6%
5 | COc1ccc(CNc2oc(-c3ccccc3)nc2C#N)cc1 | inactive: 24.6%
6 | CCCCN1C(=O)c2ccc(C(=O)Nc3c(N)n(CCCC)c(=O)n(C)c3=O)cc2C1=O | inconclusive: -33.2%
7 | COc1ccc(N(C(=O)c2cccnc2)S(=O)(=O)c2ccc3c4c(cccc24)C(=O)N3C)cc1 | inconclusive: -35.9%
8 | CC1CCN(C(=O)C(Cc2ccccc2)n2cccc2)CC1 (stereo unspecified) | inconclusive: -41.9%
9 | CCOc1cc(/C=C2\CCCC(C(=O)C(F)(F)F)=C2O)ccc1O | inconclusive: -55.7%
10 | CCCCOCCCNC(=O)COc1ccccc1 | inconclusive: -66.9%
12 | Cc1ccc(/C=N/NC(=O)c2cccs2)o1 | active: -82.5%
13 | CC(C)CCNC(=O)c1nnc(Cc2ccc(Cl)cc2)o1 | active: -110%
14 | CCc1ccccc1N=C1S/C(=C/c2ccccc2OCC(=O)N2CCOCC2)C(=O)N1C | inconclusive: -56.8%
16 | Cc1ccccc1C(=O)O/N=C(\N)c1ccncc1 | inconclusive: -36.3%
17 | O=C(c1ccco1)N1CCN(Cc2nc3ccc([N+](=O)[O-])cc3c(=O)n2-c2ccccc2F)CC1 | inactive: -3.83%
18 | Cc1ccc(Nc2nc(-c3sc(NC(=O)c4ccco4)nc3C)cs2)cc1 | inconclusive: -79.7%
19 | O=C(/C(=N/N=C/c1ccc(O)c(O)c1)c1ccccc1)c1ccccc1 | inconclusive: -65.4%
21 | CC(NC(=O)/C(C#N)=C/c1cn[nH]c1-c1ccccc1)c1ccccc1 (stereo unspecified) | inactive: 25.3%
22 | COCCN(Cc1cc2cc3c(cc2n2nnnc12)OCO3)C(=O)c1ccccc1F | inconclusive: -73.2%

# Going on with the list:

row,Structure (SMILES),"activity change (PNC), negative = inhibition"
1,O=C(NC(C(=O)O)c1ccccc1)c1ccccc1 (stereo unspecified),inconclusive: -46.9%
2,COc1ccc(N(CC(=O)NCCSCc2c(F)cccc2Cl)S(C)(=O)=O)cc1OC,inactive: -10.7%
3,CC(=O)NCCNC(=O)CNC(=O)c1ccc(Cl)cc1,inconclusive: -39.9%
4,CC1=CS(=O)(=O)CC1Sc1nc2ccccc2[nH]1 (stereo unspecified),inconclusive: -75.4%
5,C=CCc1ccc(OCCCCN2CCC(C)CC2)c(OC)c1,inconclusive: -46%
6,CC1CCc2sc3ncn4nc(C(=O)NCc5ccco5)nc4c3c2C1 (stereo unspecified),inconclusive: -50%
7,O=C(NNC(=O)c1ccccc1Br)c1ccc(SCC2CCCO2)c([N+](=O)[O-])c1 (stereo unspecified),inactive: 25.3%
8,Cc1cc(C)nc(NCCCc2ccccc2)n1,inconclusive: -30.6%
9,CC1CCN(CCNC(=O)C2CCCN(S(=O)(=O)c3cccc4nonc34)C2)CC1 (stereo unspecified),inconclusive: -30.8%
10,COc1cc(C(=O)Nc2ccc(O)cc2)ccc1OC(C)=O,inactive: -25.9%
11,Cc1cc2ncn(CCCCOc3ccccc3)c2cc1C,inconclusive: -41.3%
12,O=C(CNC(=O)c1ccc(F)cc1)N/N=C/c1cc(Br)ccc1OCc1ccccc1,inactive: 19.3%
13,O=C(Nc1nc(-c2ccccc2)cs1)c1ccccc1NS(=O)(=O)c1ccc(F)cc1,inactive: 0.226%
14,CCCc1nnc(NC(=O)c2ccc(N3C(=O)C4C5C=CC(C5)C4C3=O)cc2)s1 (stereo unspecified),inactive: 2.5%
15,COc1ccc(C(=O)NCc2cccnc2)cc1OC,inconclusive: -36.4%
16,O=C(N/N=C/c1ccccc1O)C1(O)c2ccccc2-c2ccccc21,inactive: 75.4%
17,CCCNC(=O)CN(c1ccc(F)cc1)S(=O)(=O)c1ccc2c(c1)OCCO2,inactive: 41.6%
18,COCc1cc(C)nc2sc(C(=O)N3CCN(c4ccccc4)CC3)c(N)c12,inactive: -13.9%
19,COc1ccc(S(=O)(=O)N2CCN(c3c(C)cccc3C)CC2)cc1OC,inconclusive: -39.1%
20,O=C(Nc1ccccc1F)c1ccc(OCc2ccccc2)cc1,inconclusive: -45.9%
21,O=c1ccnc(NCCc2ccccc2)[nH]1,inconclusive: -46.8%
22,COc1ccccc1OCC(=O)Nc1cccc(-c2nc3ccccc3o2)c1,inconclusive: -37.2%
23,CCOC(=O)C1=NN(C(=O)Nc2ccc(OC)cc2)C2C(=O)N(c3cccc(C(F)(F)F)c3)C(=O)C12 (stereo unspecified),inconclusive: -76.3%

row,Structure (SMILES),"activity change (PNC), negative = inhibition"
1,CCOc1ccc(OCc2ccc(C(=O)O)o2)cc1,inactive: 11.3%
2,COc1ccc(OC)c(NC(=O)/C=C/c2ccccc2[N+](=O)[O-])c1,inconclusive: -55.4%
3,COc1ccc(NS(=O)(=O)c2cccc(NC(=O)CCS(=O)(=O)c3ccccc3)c2)cc1,inconclusive: -35%
4,CC1(C)CC(=O)C(C=NC(CCC(N)=O)C(=O)O)=C(O)C1 (stereo unspecified),inconclusive: -73.2%
5,O=C(CCCc1ccccc1)Nc1cccnc1,inconclusive: -39.1%
6,CC1(C)CC(=O)C(C(c2cccc([N+](=O)[O-])c2)C2C(=O)CC(C)(C)CC2=O)C(=O)C1,inconclusive: -33.7%
7,O=C1CC(N2CCN(c3ccc(S(=O)(=O)N4CCCC4)cc3)CC2)C(=O)N1c1ccc(F)cc1 (stereo unspecified),inactive: -30%
8,CN(C)c1ccc(C=NCC2(O)CCOC(C)(C)C2)cc1 (stereo unspecified),inactive: 25.5%
9,CCOc1ccccc1-c1nnc(SCC(=O)Nc2ccccc2)o1,inconclusive: -30.7%
10,CC(=O)C1C(c2ccc(F)c(F)c2)NC(=O)NC1(O)C(F)(F)F (stereo unspecified),inactive: -11.2%
11,CCO/N=C(/C)c1c(O)cc(C(C)(C)C)n(-c2ccccc2)c1=O,inconclusive: -41.6%
12,COc1cc(Cl)cc(/C=C/c2ccc3ccccc3n2)c1OC(C)=O,active: -101%
13,COc1ccc(CSc2ncn[nH]2)cc1[N+](=O)[O-],inactive: 3.24%
14,CC1(C)CC(=O)C2=C(C1)N(c1ccccc1C#N)C(N)=C(C#N)C2c1cccs1 (stereo unspecified),inconclusive: -40%
15,CCOC(=O)C(=O)Nc1nc(-c2ccccc2)c(-c2ccccc2)o1,inconclusive: -37.8%
16,COc1ccccc1N1CCN(C(=O)c2ccc(CN3CCc4ccccc4C3)cc2)CC1,inactive: 55.7%
17,COc1ccc2nc(-c3cccc(N)c3)[nH]c2c1,inactive: -19.3%
18,Cc1ccccc1NC(=O)CNc1ccc(Cl)c(C(F)(F)F)c1,inconclusive: -71.8%
19,CC(Oc1ccc(F)cc1)C(=O)/C=C\N(C)C (stereo unspecified),active: -88.4%
20,O=C(CSc1nnc(-c2cccs2)n1Cc1ccccc1)N1CCc2ccccc2C1,inconclusive: -40.4%
21,COC(=O)c1ccc(Oc2c(Cl)cccc2[N+](=O)[O-])cc1,inconclusive: -40.5%
22,CCn1c2ccccc2c2cc(N=C3SC(CC(=O)Nc4ccccc4OC)C(=O)N3CCOC)ccc21 (stereo unspecified),active: -97.9%
23,COc1ccc(C2(CNC(=O)/C=C\c3ccco3)CCCC2)cc1OC,inconclusive: -43.3%

row,Structure (SMILES),"activity change (PNC), negative = inhibition"
1,COC(=O)c1sccc1NC(=O)c1ccc(C)o1,inconclusive: -57%
2,CCOC(=O)N1CCC(NC(=O)C(NC(=O)C2CCC(C)CC2)C(C)CC)CC1 (stereo unspecified),inconclusive: -46.3%
3,Cc1nc(Nc2ccc(Cl)cc2Cl)sc1C(=O)Nc1ccccc1,inconclusive: -65%
4,CSc1nc(C)c(Cl)c(C)c1C#N,inconclusive: -38%
5,Cc1nc2ccccn2c1C(=O)N/N=C/c1ccccc1[N+](=O)[O-],inactive: 1.62%
6,CC1C/C(=N\NC(=S)NCc2ccccc2)CC(C)(C)C1 (stereo unspecified),inconclusive: -42.5%
7,CCOC(=O)C(C)Sc1nnc(Cc2cc(=O)[nH]c(=O)[nH]2)n1-c1ccc(OCC)cc1 (stereo unspecified),inconclusive: -48.2%
8,CCCc1c(C)[nH]c2ccccc2c1=O,inconclusive: -63.1%
9,CN1CCN(NC(=O)COc2cccc(C(F)(F)F)c2)CC1,inconclusive: -32.9%
10,OC(Cn1cncn1)c1ccc(Cl)cc1Cl (stereo unspecified),inconclusive: -32%
11,CCOc1ccccc1NC(=O)CCc1ccc(C)o1,inconclusive: -41.3%
12,CCCC(=O)Nc1nc(C)c(-c2csc(Nc3ccc(Cl)cc3)n2)s1,inactive: 8.09%
13,CC1=C(C(=O)Nc2cc(-c3cccc(F)c3)[nH]n2)C2(CCCCC2)OC1=O,inconclusive: -34.8%
14,COc1ccc(S(=O)(=O)N2CCC(C(=O)NCC(c3cccs3)N(C)C)CC2)cc1 (stereo unspecified),inconclusive: -32.1%
15,O=C(c1ccc(CNc2c(N3CCOCC3)c(=O)c2=O)cc1)N1CC=C(c2ccccc2)CC1,inactive: -18.4%
16,CCOc1ccc(S(=O)(=O)NCc2csc(C)n2)cc1,active: -90.7%
17,CCCN1C(=O)/C(=C/c2ccncc2)SC1=S,inconclusive: -70.3%
18,CCOc1ccc(N2C(=O)C3C4C=CC(CC4)C3C2=O)c([N+](=O)[O-])c1 (stereo unspecified),inactive: -10.4%
19,COc1ccc(Cn2c(CCC(=O)Nc3ccc(CC#N)cc3)nc3cccnc32)cc1,inactive: 7.62%
20,CC(O)Cn1cnc2c1c(=O)n(C)c(=O)n2C (stereo unspecified),active: -115%
21,COC(=O)C1CCN(C(=O)c2sc3nc(-c4ccc(F)cc4)cn3c2C)CC1,inactive: 15%
22,Cn1nc(C(=O)NCCN2CCOCC2)c2ccccc2c1=O,inconclusive: -50.3%
